# Laboratory results: PubChem BioAssay AID652248 (Drosophila RNAi Screening Center, 2013)
# Assay: 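Kinase and phosphatase regulators of cell lengthening and shape variety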 (primary screen)
# Cells: cultured Drosophila hemocytes
# Reagents: long dsRNA against Drosophila genes
# Measurement: 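Automated microscopy of stained actin, tubulin and nuclei; single-cell shape measures assigned to five reference shape types, giving a score per dsRNA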
# Scale: elongated score: higher = more elongated bipolar cells; normal round score: higher = more normal rounded cells; teardrop score: higher = more small teardrop-shaped cells
# Active means: 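a gene counts as active when its knock-down clearly increases the elongated score; a low similarity score was then used to rank the actives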
# The deposit covers 863 reagents; this is an unselected part. 32 of all reagents (3.7%) were called active. 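Calls also used reproducibility and a similarity ranking whose scores are not deposited; many active genes show only modest elongated scores.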 A number with no mark means an inactive call. Reagents against one gene are numbered here. Not stated in the record: the amount of reagent, the time to read-out.
The opening 3 records, to show the layout:
predicted target,reagent no.,"elongated score, rep 1","elongated score, rep 2","normal round score, rep 1","teardrop score, rep 1"
CycG (Cyclin G),1,0.53,1.97,-1.03,0.64
CycG (Cyclin G),2,0.66,,-1.61,1.85
CG7115,1,-0.36,,0.79,-0.63

Main list, from the first entry:
predicted target,reagent no.,"elongated score, rep 1","elongated score, rep 2","normal round score, rep 1","teardrop score, rep 1"
CycG (Cyclin G),1,0.53,1.97,-1.03,0.64
CycG (Cyclin G),2,0.66,,-1.61,1.85
CG7115,1,-0.36,,0.79,-0.63
CG7115,2,1.99,,-0.95,0.05
kek1 (kekkon 1),1,-0.53,,0.34,0.02
CG32687,1,-0.39,,-1.2,2.13
CG32687,2,-0.29,,-2.99,3
CG5757,1,0.26,,-1.18,1.21
Pdk (Pyruvate dehydrogenase kinase),1,0.02,,-0.3,0.32
IKKepsilon (I-kappaB kinase epsilon),1,0.02,,-1.3,2.19
Stam (Signal transducing adaptor molecule),1,0.05,,0.35,-0.85
Stam (Signal transducing adaptor molecule),2,-0.32,,-4.17,1.46
Ipp (Inositol polyphosphate 1-phosphatase),1,-0.14,,-0.81,1.57
Ipp (Inositol polyphosphate 1-phosphatase),2,1.01,,-0.51,0.58
SRPK (SR Protein Kinase),1,-0.53,,0.33,-0.64
SRPK (SR Protein Kinase),2,-0.31,,-1.26,2.02
Argp (Arginine phosphatase),1,-0.4,,0.86,-0.96
CG3008,1,-0.16,,-0.78,1.53
CaMKII (Calcium/calmodulin-dependent protein kinase II),1,1.09,-0.34,-2.55,3.42
CG10376,1,0.23,,-1.2,1.12
CG10376,2,0.04,,-0.8,0.36
CG34384,1,-0.32,,0.48,-0.32
CG34384,2,0.04,,-0.38,0.67
Sk1 (Sphingosine kinase 1),1,1.49,,-0.45,-0.4
Slob (Slowpoke binding protein),1,0.65,,-0.63,0.66
wts (warts),1,-0.53,,-0.85,1.78
wts (warts),2,-0.27,,-1.27,1.92
